In publication PMC12390933:
Results are given in words; binding and its absence hold for the method and conditions named. Sequences can lack the tags named with a protein.

Target: full-length HA-tag-free UGT2B7 C127/156/282A (UniProt P16662)
Experiment: non-reducing, non-heated SDS-PAGE with western blot; cell lysates in RIPA buffer (50 μg) mixed with SDS sample buffer without 2-mercaptoethanol and without the heating step (90 °C, 3 min), 7.5% gel, room temperature, 70 to 150 min; western blot with anti-HA or anti-UGT2B7; SDS-stable oligomer bands, greatly decreased when the reducing agent is added

- binding: no binding
B1: full-length HA-tag-free UGT2B7 C127/156/282A (enzyme, UniProt P16662 24-529)
chain: GKVLVWAAEYSHWMNIKTILDELIQRGHEVTVLASSASILFDPNNSSALKIEIYPTSLTKTELENFIMQQIKRWSDLPKDTFWLYFSQVQEIMSIFGDITRKFAKDVVSNKKFMKKVQESRFDVIFADAIFPASELLAELFNIPFVYSLSFSPGYTFEKHSGGFIFPPSYVPVVMSELTDQMTFMERVKNMIYVLYFDFWFEIFDMKKWDQFYSEVLGRPTTLSETMGKADVWLIRNSWNFQFPYPLLPNVDFVGGLHAKPAKPLPKEMEDFVQSSGENGVVVFSLGSMVSNMTEERANVIASALAQIPQKVLWRFDGNKPDTLGLNTRLYKWIPQNDLLGHPKTRAFITHGGANGIYEAIYHGIPMVGIPLFADQPDNIAHMKARGAAVRVDFNTMSSTDLLNALKRVINDPSYKENVMKLSRIQHDQPVKPLDRAVFWIEFVMRHKGAKHLRVAAHDLTWFQYHSLDVIGFLLVCVATVIFIVTKCCLFCFWKFARKAKKGKND
